Binding data for two molecules are collected here from patent US20210246220A1.

Amino acid sequences for entries named in this document (tags omitted). Residues count along the entry.
UniProt Q02223, residues 1-54: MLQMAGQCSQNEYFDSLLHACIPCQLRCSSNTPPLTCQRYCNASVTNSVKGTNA

Results are given in words; binding and its absence hold for the method and conditions named. Some binding calls cover weakened binding; strength is not graded here.

This experiment has as its target BCMA-Fc antigen (UniProt Q02223). Briefly: ELISA; plate coated with 100 ng BCMA-Fc; crushed bacterial supernatant with scFv; mouse anti-HA-tag antibody, then AP-labeled anti-mouse IgG; positive when the absorbance ratio to the control well is greater than 2.1. Background: In an ELISA, binding on a coated surface is turned into a signal by an enzyme label.

B1: scFv_46 (scFv, not shown: small tags and cut ends)
scFv: DIQMTQSPSSLSASVGDRVTITCSASQDISNYLNWYQQKPGKAPKLLIYYTSNLHSGVPSRFSGSGSGTDFTLTISSLQPEDFATYYCQQRLTPSPFTFGQGTKLEIKRGGGGSGGGGSGGGGSGGGGSQVQLVQSGAEVKKPGSSVKVSCKASGGTFSNYWMHWVRQAPGQGLEWMGATYRGHSDTYYNQKFKGRVTITADKSTSTAYMELSSLRSEDTAVYYCARNTALLDNWGQGTLVTVSS
B1: the binding result is “binds”.

B2: scFv_20 (scFv, not shown: small tags and cut ends)
scFv: DIQMTQSPSSLSASVGDRVTITCSASQDISNYLNWYQQKPGKAPKLLIYYTSNLHSGVPSRFSGSGSGTDFTLTISSLQPEDFATYYCQQYRKLAWTFGQGTKLEIKRGGGGSGGGGSGGGGSGGGGSQVQLVQSGAEVKKPGSSVKVSCKASGGTFSNYWMHWVRQAPGQGLEWMGATYRGHSDTYYNQKFKGRVTITADKSTSTAYMELSSLRSEDTAVYYCARGSIFNGYDVLDNWGQGTLVTVSS
Turning to B2, the binding result was “binds”.
